# PubChem BioAssay AID504834 (National Center for Advancing Translational Sciences (NCATS), 2011)
# In all, about 320,000 compounds went through this assay and about 22,000 (6.9%) were called active. Inconclusive results, whose numbers are uncertain, are shown with a selection of clear calls. The call rests on the fitted dose curve; in most records, active means well fitted inhibition curve with a large enough effect; inconclusive means small, poorly fitted or top-dose-only effect, or another doubt; inactive means no such curve, though single readings can be large or run the other way. Where the call is inconclusive, the potency comes from a doubtful curve fit.
# Assay: Primary qHTS for delayed death inhibitors of the malarial parasite plastid, 96 hour incubation
# Conditions: P. falciparum luciferase reporter growth; series mostly up to 28.7 µM; activity change, negative = inhibition: at the top concentration
# Method in brief: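 Erythrocytes infected with luciferase-expressing P. falciparum were dispensed at 2% hematocrit and 0.05% parasitemia (final), then incubated with compounds 96 hours at 37 C in 5% CO2. Luminescence after detection reagent addition reported growth.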
# On the % scale 0 is the no-effect control and ±100 the full control effect; potency means the concentration at half of the fitted maximal effect.
Structure (SMILES),"activity change, negative = inhibition",Potency
O=C(Cc1ccc(Br)cc1)NC1CCSC1=O (stereo not drawn),inactive: 0%,–
O=[N+]([O-])c1ccc(NCCCO)c(C(F)(F)F)c1,–,"inconclusive: 18.5 µM [inhibitor, single point]"
CCOC(=O)CNC(=O)C(CC(C)C)NC(=O)C1CCCCC1 (stereo not drawn),–,"inconclusive: 1.31 µM [inhibitor, full curve, poor fit]"
COc1cc(/C=N/S(=O)(=O)CCc2ccccc2)ccc1O,–,"inconclusive: 4.15 µM [inhibitor, single point]"
CN(CC(=O)Nc1ccc(Cl)cc1)C(=O)c1cccc(S(=O)(=O)N(C)C)c1,–,active: 10.4 µM
CCN1CCN(C(=O)C(NS(=O)(=O)c2ccc3nc(C)sc3c2)C(C)C)CC1 (stereo not drawn),–,active: 9.28 µM
CCOc1c(N2CC(C)OC(C)C2)c(=O)c1=O (stereo not drawn),inactive: 14.1%,–
CCc1nnc(NC(=O)c2cc(-c3ccco3)nc3ccccc23)s1,inactive: 29.4%,–
C=CCN1C(=O)c2ccc(C(=O)N(CC)CC(=O)Nc3c(F)cccc3F)cc2C1=O,inactive: -0.231%,–
COc1ccc(/C=C/CN2CCN(Cc3cccc(OC)c3)C(CCO)C2)cc1 (stereo not drawn),–,"inconclusive: 4.65 µM [inhibitor, single point]"
O=C(/C=C/c1ccc(Cl)cc1Cl)N1CCc2ccccc21,inactive: 353%,–
CCOC(=O)N1CCN(C(=O)CN(c2ccc(Cl)c(C(F)(F)F)c2)S(C)(=O)=O)CC1,inactive: 3.53%,–
COC(=O)c1ccc(NC(=O)CN2C(=O)c3ccccc3S2(=O)=O)cc1,inactive: 26.3%,–
COc1ccc(CNC(=O)CCn2nc(C)c3c(C)n(-c4ccccc4)nc3c2=O)c(OC)c1,–,"inconclusive: 4.65 µM [inhibitor, partial curve]"
COc1ccc(CCC(=O)N2CCN(C(=O)c3ccccc3)CC2)cc1,inactive: -10.2%,–
Fc1ccccc1Nc1nc(Cl)nc(Cl)n1,inactive: 76.6%,–
Cc1nn(C)c(C(=O)N/N=C/c2cccnc2)c1Cl,–,"inconclusive: 11.7 µM [inhibitor, single point]"
OCCC1CN(C2CSCCSC2)CCN1Cc1ccccc1 (stereo not drawn),–,"inconclusive: 11.7 µM [inhibitor, partial curve]"
COc1ccc(NC(=O)c2sc3nc(N4CCOCC4)c4c(c3c2N)CC(C(C)C)OC4)c(OC)c1 (stereo not drawn),–,"inconclusive: 11.7 µM [inhibitor, partial curve]"
COc1cc(CCN2C(=O)c3cccc4cccc(c34)C2=O)c(S(=O)(=O)NCCCO)cc1OC,–,active: 8.28 µM
COc1ccccc1NC(=O)CCCCC(=O)Nc1ccccc1OC,–,"inconclusive: 18.5 µM [inhibitor, single point]"
COc1ccccc1C(=O)OCC(=O)NCCNC(=O)COC(=O)c1ccccc1OC,inactive: -10.1%,–
CN(C1CCCCC1)S(=O)(=O)c1ccc(S(=O)(=O)N2CCCC2)cc1,–,active: 1.65 µM
O=C(CSc1nnnn1-c1ccc(Cl)cc1)N1CCc2ccccc2C1,inactive: 4.75%,–

Structure (SMILES),"activity change, negative = inhibition",Potency
O=C(CN(CCc1ccccc1)Cc1ccccc1)Oc1ccccc1P(=O)(O)O,–,"inconclusive: 5.86 µM [inhibitor, partial curve, poor fit]"
COc1ccc(Br)cc1/C=N/N1C(=O)CSC1=S,–,"inconclusive: 18.5 µM [inhibitor, single point]"
Cc1ccc(-n2cc(CN3CCNC(=O)CC3)c(-c3ccc(F)cc3)n2)cc1,–,"inconclusive: 18.5 µM [inhibitor, single point]"
CC(=O)c1ccc2c(c1)Cc1cc(C(C)=O)ccc1-2,–,active: 5.22 µM
CCn1c(CCNC(=O)c2ccc(C)cc2)nnc1SCc1ccc(Cl)c(Cl)c1,–,"inconclusive: 10.4 µM [inhibitor, single point]"
Cc1c(Cl)cccc1NC(=O)CSc1nccn1C,–,"inconclusive: 0.262 µM [inhibitor, full curve]"
Fc1ccc(-c2cc(C(F)(F)F)nc(N3CCCCC3)n2)cc1,–,"inconclusive: 13.1 µM [inhibitor, single point]"
CCOC(=O)N1CCC(N2CC34C=CC(O3)C(C(=O)Nc3ccc(C(C)C)cc3)C4C2=O)CC1 (stereo not drawn),–,"inconclusive: 10.4 µM [inhibitor, single point]"
CCCCN1C(=O)C(=O)N(CC(=O)c2ccc3c(c2)OCO3)C1=O,inactive: 11.4%,–
Cc1ccccc1-n1nc(C)c2cc(C(=O)NC3CC3)sc21,–,active: 5.22 µM
COCCN(Cc1cn(C)nc1-c1ccccc1F)C(C)C,–,active: 9.28 µM
OC[C@H]1O[C@@](CO)(O[C@H]2O[C@H](CO)[C@@H](O)[C@H](O)[C@H]2O)[C@@H](O)[C@@H]1O,inactive: -12.7%,–
COc1ccccc1-c1nc(C#N)c(N2CCN(C(=O)c3ccco3)CC2)o1,inactive: 5.4%,–
NNC(=O)c1oc2nc(-c3ccccc3)cc(-c3ccccc3)c2c1N,–,"inconclusive: 10.4 µM [inhibitor, partial curve, poor fit]"
CCOC(=O)c1nn(-c2ccc(C)cc2)cc1C(=O)c1ccccc1,inactive: 16.3%,–
CC(=O)c1ccc(NC(=O)Nc2ccc([N+](=O)[O-])cc2)cc1,–,"inconclusive: 18.5 µM [inhibitor, single point]"
COc1ccccc1N1CCC(N2CCN(CC(C)(C)C)C(CCO)C2)CC1 (stereo not drawn),–,active: 0.465 µM
CCOC(=O)c1c(O)c(O)c(C(=O)OCC)n1-c1ccccc1,inactive: 26.7%,–
CSc1nncn1/N=C/c1ccc2c(c1)OCO2,–,"inconclusive: 4.15 µM [inhibitor, partial curve, poor fit]"
Cc1ccoc1C(=O)NCCNc1ccc(Cl)cc1[N+](=O)[O-],–,"inconclusive: 0.147 µM [inhibitor, full curve, poor fit]"
COc1ccc([N+](=O)[O-])cc1NC(=O)/C=C/C(=O)O,–,"inconclusive: 10.4 µM [inhibitor, partial curve]"
C#CCOCCOCCOCCNc1nc(N2CCN(C(=O)Cn3cc(CCCCN)nn3)CC2)nc(N2CCN(C(=O)Cn3cc(CC(C)O)nn3)CC2)n1 (stereo not drawn),inactive: -17.6%,–
COC(=O)c1ccc(N2CCN(CC(=O)c3ccc(-c4ccccc4)cc3)CC2)c([N+](=O)[O-])c1,–,"inconclusive: 0.415 µM [inhibitor, full curve, poor fit]"
CC(=O)Oc1ccc(/C=N/NC(=O)CCSc2ccccc2)cc1,–,"inconclusive: 18.5 µM [inhibitor, single point]"

# 4 entries from above in another layout.
Structure (SMILES)	activity change, negative = inhibition	Potency
COCCN(Cc1cn(C)nc1-c1ccccc1F)C(C)C	–	active: 9.28 µM
CSc1nncn1/N=C/c1ccc2c(c1)OCO2	–	inconclusive: 4.15 µM [inhibitor, partial curve, poor fit]
C#CCOCCOCCOCCNc1nc(N2CCN(C(=O)Cn3cc(CCCCN)nn3)CC2)nc(N2CCN(C(=O)Cn3cc(CC(C)O)nn3)CC2)n1 (stereo not drawn)	inactive: -17.6%	–
COC(=O)c1ccc(N2CCN(CC(=O)c3ccc(-c4ccccc4)cc3)CC2)c([N+](=O)[O-])c1	–	inconclusive: 0.415 µM [inhibitor, full curve, poor fit]
